Test results from article PMC4397020.

How the values were obtained:
[1] = biological target: type IV collagen (from Engelbreth-Holm-Swarm murine sarcoma basement membrane) (murine); test: ELISA; substrate coated at 0.03 μM in HBS (25 mM HEPES pH 7.4, 150 mM NaCl) on non-tissue culture 96-well plates overnight at 4°C, blocked with HBSB (1% BSA); MBP fusion at 1 μM in HBSB, 1 hr at RT; fixed; detected with anti-MBP antiserum; compared with buffer-coated wells and with MBP-β-gal; both …
[2] = biological target: laminin (from Engelbreth-Holm-Swarm murine sarcoma basement membrane) (murine); test: as above

B1: MBP-LipL32 (protein, UniProt Q72SM7 20-272)
chain: CGAFGGLPSLKSSFVLSEDTIPGTNETVKTLLPYGSVINYYGYVKPGQAPDGLVDGNKKAYYLYVWIPAVIAEMGVRMISPTGEIGEPGDGDLVSDAFKAATPEEKSMPHWFDTWIRVERMSAIMPDQIAKAAKAKPVQKLDDDDDGDDTYKEERHNKYNSLTRIKIPNPPKSFDDLKNIDTKKLLVRGLYRISFTTYKPGEVKGSFVASVGLLFPPGIPGVSPLIHSNPEELQKQAIAAEESLKKAASDATK
**Q.** Which binding [1] does the source give for B1 here?
**A.** Its binding is “no binding (tested: 1 μM)”.

**Q.** What about the binding [2] of the same binder?
**A.** Its binding is “no binding (tested: 1 μM)”.

No constants are given. Whether binding was seen depends on the method and setting. Tags and fused reporters may be left off the sequences shown.
